PubChem BioAssay AID492960 (National Center for Advancing Translational Sciences (NCATS), 2010)
The shares of active, inactive and inconclusive entries below differ from those in the screen. Where the call is inconclusive, the potency comes from a doubtful curve fit. Activity calls are given as the source filed them. Calls follow the shape of the dose curve; as a rule, active = well fitted curve in the direction sought with a large enough effect; inconclusive = small, poorly fitted or top-dose-only effect, or effect the other way, or another doubt; inactive = no such curve, though single readings can be large or run the other way.

Test: Secondary Assay for lipid storage modulators: HepG2 cell LDSA assay for probe SAR
Conditions: HepG2 lipid droplet BODIPY, laser-scanning cytometry, 18-24 h; series mostly up to 46.1 µM
Description: NIH Molecular Libraries Probe Production Centers Network [MLPCN] NIH Chemical Genomics Center [NCGC] MLPCN Grant: 1 R03 MH085686-01 Assay Submitter (PI): Beller, Mathias; Max-Planck-Institut fur Biophysikalische Chemie NCGC Assay Overview: Storing lipids as a reservoir for energy or the anabolism of elementary metabolites is a common feature of probably all cells and is conserved from bacteria to humans. The universal cellular lipid storage organelle is the so-called lipid storage droplet (LD). Although ubiquitous, LDs share a simple structure composed of a hydrophobic core that harbors the storage lipids, which is shielded by a droplet-specific phospholipid monolayer to which proteins are attached. The current model of LD biogenesis involves an incorporation of the lipid core into the membrane leaflets of the endoplasmic reticulum (ER) followed by a subsequent budding-like maturation of a LD, which ultimately pinches off. Once released, LD volume can increase by localized lipogenesis or fusion of existing droplet. Storage lipids are re-mobilized enzymatically by lipase activity. Lipase regulation in the adipocyte is heavily studied and involves multiple components including catecholamine signaling, the LD-associated proteins Perilipin and comparative gene identification (CGI-58) and at least two lipases named hormone sensitive lipase (HSL) and adipocyte triglyceride lipase (ATGL). LD regulation outside of the adipocyte is poorly understood and only few components are known. However, there is an urgent need to learn more about ectopic fat depots as mislocalized storage of lipids, for example in the liver or muscle, is an eminent health problem associated with insulin resistance or the metabolic syndrome.
NCGC Assay Protocol Summary: The assay was performed with HepG2 cells, using an oleic acid feeding protocol similar to the S3 assay. We dispensed 4 uL of cells to give 700 cells/well into Greiner bio-one 1,536-well plates (black walled, clear bottom). Triacsin C (Sigma-Aldrich T-4540), an inhibitor of long-chain fatty acyl CoA synthetase that blocks synthesis of triglycerides, was used as a positive control for lipid under-storage using a final concentration of 20 uM. The orexin antagonist, SB408124 - previously identified to stimulate lipid over-storage, was used as a positive control for lipid over-storage using a final concentration of 20 uM. A total of 23 nL of compound solution of different concentrations were transferred to the assay plates using a Kalypsys pin tool equipped with a 1,536-pin array containing 10-nL slotted pins (FP1S10, 0.457-mm diameter, 50.8 mm long; V&P Scientific). One microliter of oleic acid was added (400 uM final concentration), and the plate was lidded with stainless steel rubber gasket lined lids containing pinholes. After 18-24 h incubation at […] and 95% humidity, 4 uL of the dyes BODIPY 493/503 (Molecular Probes) and the Cell Tracker Red CMTPX dye (Molecular Probes) were added to the wells to stain lipid droplets and enumerate cell number, respectively. Fluorescence was detected by excitation of the fluorophores with a 488-nm laser on an Acumen Explorer (TTP Lab Tech). The total intensity in channel 2 (500-530 nm) reflected lipid droplet accumulation. Cells were detected using channel 3 (575-640 nm) with 5-um width and 100-um depth filters. The ratio of the number of objects in PMT channel 2 over the number of objects in PMT channel 3 was also calculated. Percent activity was computed relative to an internal control (100% inhibited lipid droplet deposition due to the presence of 20 uM Triacsin C), which was added to 32 wells/plate.

SMILES | Potency
CN(C)Cc1ccc(-c2nc3cccc4c3n2CCNC4=O)cc1 | inconclusive: 11.2 µM [activator, single point]
CCOc1ccc(CCNC(=O)c2cc3sccc3n2CCc2ccccc2)cc1OCC | inconclusive: 15.8 µM [falling, single point]
CCOc1ccc(CCNC(=O)c2cnon2)cc1OCC | inconclusive: 35.3 µM [falling, single point]
CCOc1ccc(CCNC(=O)c2cc3sccc3n2Cc2cccnc2)cc1OCC | inactive
CC1=C(C(=O)NC2CCCc3c2cnn3-c2ccc(F)cc2F)OCCO1 (stereo not given) | inconclusive: 0.0007 µM [activator, full curve, poor fit]
O=C(NC1CCCc2c1cnn2-c1ccc(F)cc1F)c1ccn[nH]1 (stereo not given) | inconclusive: 0.0004 µM [activator]
Cn1c(=O)n(-c2ccc(C(C)(C)C#N)cc2)c2c3cc(-c4cnc5ccccc5c4)ccc3ncc21 | inconclusive: 9.96 µM [activator, full curve, poor fit]
CCOc1ccc(CCNC(=O)Cc2ccccc2)cc1OCC | inconclusive: 0.112 µM [falling, full curve, poor fit]
CCOc1ccc(CCNC(=O)c2cc3sccc3n2C(C)C)cc1OCC | inconclusive: 12.5 µM [falling, partial curve]
Cc1cn(-c2cc(NC(=O)c3ccc(C)c(Nc4nccc(-c5cccnc5)n4)c3)cc(C(F)(F)F)c2)cn1 | inconclusive: 15.8 µM [activator, partial curve]
CCOc1ccc(CCNC(=O)c2cc3sccc3n2Cc2ccccc2)cc1OCC | active: 14.1 µM
CCn1c(C(=O)NCc2ccc(OC)c(OC)c2)cc2sccc21 | inconclusive: 25 µM [falling, single point]
O=C(N[C@H]1CCCc2c1cnn2-c1ccc(F)cc1F)c1ccccn1 | inconclusive: 0.0125 µM [activator, full curve, poor fit]
COc1ccc(-c2cnc(SCC(=O)Nc3nc(C)cs3)n2-c2ccccc2)cc1 | inactive
CCOC(=O)C1CCCN(C(=O)C2(NC(=O)Nc3ccc(F)cc3F)CCCCC2)C1 (stereo not given) | inconclusive: 0.0011 µM [activator, full curve, poor fit]
CCOc1ccc(CCNC(=O)c2cc3sccc3n2Cc2ccc(Cl)c(F)c2)cc1OCC | inactive
CC(C)(C)OC(=O)N1CCCCC1C(=O)NC1CCCc2c1cnn2-c1ccc(F)cc1F (stereo not given) | inconclusive: 0.0008 µM [activator, full curve, poor fit]
CC(C)(C)OC(=O)NC1CCCc2c1cnn2-c1ccc(F)cc1F (stereo not given) | inconclusive: 8.88 µM [activator, partial curve, poor fit]
O=C(NC1CCCc2c1cnn2-c1ccc(F)cc1F)c1ccc(C(=O)c2ccccc2)cc1 (stereo not given) | inconclusive: 0.0006 µM [activator]
O=C(NCCc1ccc(O)c(O)c1)c1cc2sccc2n1Cc1ccccc1 | inconclusive: 14.1 µM [activator, partial curve, poor fit]

SMILES | Potency
CCOC(=O)C1CCN(C(=O)C2(NC(=O)Nc3ccccc3Cl)CCC2)CC1 | inactive
O=C(Nc1cccc2nn(-c3ccc(F)cc3)cc12)c1ccccn1 | inconclusive: 0.0705 µM [falling, full curve, poor fit]
CCOc1ccc(CCNC(=O)C2COc3ccccc3O2)cc1OCC (stereo not given) | inactive
CCOc1ccc(CCNC(=O)c2cc3sccc3[nH]2)cc1OCC | inactive
O=C(NCCc1ccc2c(c1)OCO2)c1cc2sccc2[nH]1 | inconclusive: 10.2 µM [activator, partial curve, poor fit]
O=C(NC1CCCc2c1cnn2-c1ccc(F)cc1F)c1cccc(=O)[nH]1 (stereo not given) | inactive
CC(NCc1ccc2c(c1)nc(NC(=O)c1ccc(-c3cn[nH]c3)s1)n2CC(C)(C)O)C(C)(C)C (stereo not given) | inconclusive: 0.353 µM [activator, full curve, poor fit]
COc1ccc(-n2ncc3c2CCCC3NC(=O)c2cnc(C)cn2)cc1 (stereo not given) | active: 12.5 µM
COc1ccc(Cl)cc1NC(=S)N1CCN(c2ccccn2)CC1 | inconclusive: 1.58 µM [activator, full curve, poor fit]
CCOc1ccc(CCNC(=O)c2cc3sccc3n2C)cc1OCC | active: 25 µM
O=C(NC1CCCCC1)NC1(C(=O)N2CCCC2)CCCCC1 | inactive
CCOC(=O)C1CCN(C(=O)C(C)(C)NC(=O)Nc2ccccc2Cl)CC1 | inconclusive: 11.2 µM [activator, single point]
Cc1cc(NC(=O)Nc2ccc(N(C)C)cc2)c2cc(F)cc(F)c2n1 | inconclusive: 0.353 µM [activator, full curve]
CCOc1ccc(CCNC(=O)c2cc3sccc3n2Cc2ccc(OC(F)F)cc2)cc1OCC | inactive
O=C(Nc1ccccc1-c1cn2c(CN3CCNCC3)csc2n1)c1cnc2ccccc2n1 | active: 11.2 µM
O=C(Cc1ccccc1)NC1CCCc2c1cnn2-c1ccc(F)cc1F (stereo not given) | inactive
CCOc1ccc(CCNC(=O)c2cc3sccc3n2CC=C(C)C)cc1OCC | inactive
CCOc1ccc(CCNC(=O)CN(C)C)cc1OCC | inconclusive: 35.3 µM [falling, single point]
CCOc1ccc(CCNC(=O)c2cc3sccc3n2CC)cc1OCC | active: 11.2 µM
O=C(NC1CCCc2c1cnn2-c1ccc(F)cc1F)c1ccncc1 (stereo not given) | inconclusive: 3.15 µM [activator, full curve, poor fit]

Reformatted: entries from further up.
CCOC(=O)C1CCN(C(=O)C(C)(C)NC(=O)Nc2ccccc2Cl)CC1
  Potency: inconclusive: 11.2 µM [activator, single point]
CCOc1ccc(CCNC(=O)c2cc3sccc3n2CC)cc1OCC
  Potency: active: 11.2 µM
